B1: vimentin deletion mutant containing aa 97-466 of SEQ ID NO: 1 (other)
chain: KNTRTNEKVELQELNDRFANYIDKVRFLEQQNKILLAELEQLKGQGKSRLGDLYEEEMRELRRQVDQLTNDKARVEVERDNLAEDIMRLREKLQEEMLQREEAENTLQSFRQDFDNASLARLDLERKVESLQEEIAFLKKLHEEEIQELQAQIQEQHVQIDVDVSKPDLTAALRDVRQQYESVAAKNLQEAEEWYKSKFADLSEAANRNNDALRQAKQESTEYRRQVQSLTCEVDALKGTDESLERQMREMEENFAVEAADYQDTIGRLQDEIQNMKEEMARHLREYQDLLNVKMALDIEIATYRKLLEGEESRISLPLPNFSSLNLRETNEDSLPLVDTHSKRTLLIKTVETRDGQVINETSEHHDD
notes: Tested in lysate of transfected MCF-7 cells; The forward oligo carries an ATG start codon before the fragment; not shown: C-terminal Myc and His tags of the pcDNA3.1/MycHis B vector
B2: vimentin deletion mutant containing aa 134-466 of SEQ ID NO: 1 (other)
chain: ELEQLKGQGKSRLGDLYEEEMRELRRQVDQLTNDKARVEVERDNLAEDIMRLREKLQEEMLQREEAENTLQSFRQDFDNASLARLDLERKVESLQEEIAFLKKLHEEEIQELQAQIQEQHVQIDVDVSKPDLTAALRDVRQQYESVAAKNLQEAEEWYKSKFADLSEAANRNNDALRQAKQESTEYRRQVQSLTCEVDALKGTDESLERQMREMEENFAVEAADYQDTIGRLQDEIQNMKEEMARHLREYQDLLNVKMALDIEIATYRKLLEGEESRISLPLPNFSSLNLRETNEDSLPLVDTHSKRTLLIKTVETRDGQVINETSEHHDD
notes: Tested in lysate of transfected MCF-7 cells; not shown: EGFP and linker of the pEGFP-C3 vector
B3: endogenous vimentin of HUVEC (other)
chain: STRSVSSSSYRRNFGGPGTASRPSSSASYVTTSTRTYSLGSALRPSTSRSLYASSPGGVYATRSSAVRLRSSVPGVRLLQDSVDFSLADAINTEFKNTRTNEKVELQELNDRFANYIDKVRFLEQQNKILLAELEQLKGQGKSRLGDLYEEEMRELRRQVDQLTNDKARVEVERDNLAEDIMRLREKLQEEMLQREEAENTLQSFRQDFDNASLARLDLERKVESLQEEIAFLKKLHEEEIQELQAQIQEQHVQIDVDVSKPDLTAALRDVRQQYESVAAKNLQEAEEWYKSKFADLSEAANRNNDALRQAKQESTEYRRQVQSLTCEVDALKGTDESLERQMREMEENFAVEAADYQDTIGRLQDEIQNMKEEMARHLREYQDLLNVKMALDIEIATYRKLLEGEESRISLPLPNFSSLNLRETNEDSLPLVDTHSKRTLLIKTVETRDGQVINETSEHHDD
notes: Endogenous protein of human umbilical vein endothelial cells, tested in membrane lysates and in lysates of surface-biotinylated cells; also called endogenous cell surface expressed vimentin

Columns and labels:
[1] = biological target: T1, GST-tagged CD44 hyaluronic acid binding-domain (CD44-HABD) (UniProt P16070 21-132); assay: GST pull-down from transfected MCF-7 lysate, western blot
T1 construct: also called GST-HABD; not shown: glutathione S-transferase (GST) tag
Experimental: Full length vimentin or its deletion mutant constructs were transfected into MCF-7 cells. After incubation cells were lysed and lysate was used in pull-down reaction using GST-tagged CD44-HABD proteins immobilised onto glutathione sepharose beads. After pull-down, beads were washed and bound proteins were eluted. Eluates were analysed on western blot. A, vimentin deletion mutants used in pull-down reactions. B, WB of pull-down reactions from vimentin and its deletion mutant transfected cell lysates.
CD44-3MUT binding of vimentin deletion mutants was tested using GST pull-down from cell lysates. MCF-7 cells were transfected with vimentin deletion-constructs on 15 cm cell culture plates using 20 µg DNA with polyethyleneimine (PEI; DNA and PEI were used in ratio 1:2). Transfected cells were incubated at 37° C. for 72 h. Thereafter, adherent cells were washed once with cold PBS and lysed in 2 ml of lysis buffer containing 50 mM Tris pH 8.0, 50 mM NaCl, 2% CHAPS and protease inhibitor cocktail (Roche). For removal of insoluble material the lysates were centrifuged 14000 rpm 30 min at 4° C. Resulting lysates were used in GST pull-down. […] Eluates were pooled and after SDS PAAG pull-down reactions were analysed by western blotting with anti-His specific pAb (H-15) (Santa Cruz Biotechnology) or anti-vimentin specific pAb (Genway).

[2] = biological target: T2, glutathione S-transferase (UniProt P08515 1-218 = GST); assay: GST pull-down from HUVEC membrane lysate, silver staining
T2 construct: Control protein on glutathione sepharose beads; also called GST; GST alone
Experimental: To discover endothelial protein targets for previously described angiogenesis inhibiting protein CD44-3MUT (SEQ ID NO: 13) (Päll T et al, Oncogene. 2004 Oct. 14; 23(47):7874-81.), we performed GST pull-down from HUVEC membrane lysates with GST tagged CD44-3MUT (GST-3MUT). For preparation of membrane fractions, adherent cells were washed with ice-cold PBS and lysed in 50 mM Tris pH 8.0, containing protease inhibitor cocktail (Complete, Roche Applied Science, Mannheim, Germany). Insoluble material was pelleted by centrifugation at 14000 rpm 30 min. 4° C. Pellet was then solubilised in buffer containing 2% CHAPS, 50 mM Tris pH 8.0, 50 mM NaCl, protease inhibitor cocktail and centrifuged 14000 rpm 10 min. at 4° C. Resulting lysate was precleared by incubation 2 h with 20 µg glutathione S-transferase immobilised onto 25 µl Glutathione Sepharose 4 Fast Flow beads (Amersham Biosciences, Uppsala, Sweden) at 4° C. After preclearing, lysate was incubated over-night at 4° C. with 10 µg GST, GST-HABD or GST-3MUT proteins immobilised onto 25 µl glutathione sepharose beads. After incubation beads were pelleted in cold centrifuge and washed 4 times with 200 µl buffer containing 50 mM Tris pH 8.0, 150 mM NaCl, protease inhibitor cocktail. Bound proteins were eluted 5 times with 25 µl 20 mM reduced glutathione, 50 mM Tris pH 8.0. […]

Binder | binding result [1] | binding result [2]
B1 | no binding | 
B2 | no binding | 
B3 |  | no binding

Reference: patent publication US8524666 (IBCC, dated 2013)
